Data: patent US20130011870A1, “Method For Assaying Diseases Characterized By Dyslipidemia” (priority 2010, published 2013)

Experiments:
[1] = Plasma levels in coronary heart disease patients vs healthy controls (Example 2, FIG. 4); parameters: species or system human; conditions: CHD n=89, controls n=98
[2] = Estimated normal plasma (heparin) levels in a cohort of 100 healthy people; parameters: species or system human; conditions: 2.5%-97.5% percentile of 100 healthy people, d20:0 internal calibration

Structure (SMILES) | plasma level in CHD/atherosclerosis patients compared with healthy controls [1] | estimated normal level in human plasma [2] [µM]
CCCCCCCCCCCCC[C@@H](O)[C@@H](N)CO [d16:0, C16-sphinganine] | by trend, lower | 
CCCCCCCCCCCCCCC[C@@H](O)[C@H](C)N [m18:0, 1-deoxy-sphinganine] | not significantly different | 0.04 to 0.26
CCCCCCCCCCC/C=C/[C@@H](O)[C@@H](N)CO [d16:1, C16-sphingosine] | significantly lower | 
CCCCCCCCCCCCC/C=C/[C@@H](O)[C@H](C)N [m18:1, 1-deoxy-sphingosine] | not significantly different | 0.09 to 0.5
